Laboratory results as given in article doi:10.1101/769059.

By UniProt entry, the sequences of proteins in these tests, tags left out.
UniProt Q9CQY1: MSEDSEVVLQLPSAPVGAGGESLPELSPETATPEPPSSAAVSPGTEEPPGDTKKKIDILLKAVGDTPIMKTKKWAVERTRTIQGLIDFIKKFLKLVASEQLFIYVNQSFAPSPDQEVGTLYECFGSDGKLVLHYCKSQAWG
UniProt Q61194: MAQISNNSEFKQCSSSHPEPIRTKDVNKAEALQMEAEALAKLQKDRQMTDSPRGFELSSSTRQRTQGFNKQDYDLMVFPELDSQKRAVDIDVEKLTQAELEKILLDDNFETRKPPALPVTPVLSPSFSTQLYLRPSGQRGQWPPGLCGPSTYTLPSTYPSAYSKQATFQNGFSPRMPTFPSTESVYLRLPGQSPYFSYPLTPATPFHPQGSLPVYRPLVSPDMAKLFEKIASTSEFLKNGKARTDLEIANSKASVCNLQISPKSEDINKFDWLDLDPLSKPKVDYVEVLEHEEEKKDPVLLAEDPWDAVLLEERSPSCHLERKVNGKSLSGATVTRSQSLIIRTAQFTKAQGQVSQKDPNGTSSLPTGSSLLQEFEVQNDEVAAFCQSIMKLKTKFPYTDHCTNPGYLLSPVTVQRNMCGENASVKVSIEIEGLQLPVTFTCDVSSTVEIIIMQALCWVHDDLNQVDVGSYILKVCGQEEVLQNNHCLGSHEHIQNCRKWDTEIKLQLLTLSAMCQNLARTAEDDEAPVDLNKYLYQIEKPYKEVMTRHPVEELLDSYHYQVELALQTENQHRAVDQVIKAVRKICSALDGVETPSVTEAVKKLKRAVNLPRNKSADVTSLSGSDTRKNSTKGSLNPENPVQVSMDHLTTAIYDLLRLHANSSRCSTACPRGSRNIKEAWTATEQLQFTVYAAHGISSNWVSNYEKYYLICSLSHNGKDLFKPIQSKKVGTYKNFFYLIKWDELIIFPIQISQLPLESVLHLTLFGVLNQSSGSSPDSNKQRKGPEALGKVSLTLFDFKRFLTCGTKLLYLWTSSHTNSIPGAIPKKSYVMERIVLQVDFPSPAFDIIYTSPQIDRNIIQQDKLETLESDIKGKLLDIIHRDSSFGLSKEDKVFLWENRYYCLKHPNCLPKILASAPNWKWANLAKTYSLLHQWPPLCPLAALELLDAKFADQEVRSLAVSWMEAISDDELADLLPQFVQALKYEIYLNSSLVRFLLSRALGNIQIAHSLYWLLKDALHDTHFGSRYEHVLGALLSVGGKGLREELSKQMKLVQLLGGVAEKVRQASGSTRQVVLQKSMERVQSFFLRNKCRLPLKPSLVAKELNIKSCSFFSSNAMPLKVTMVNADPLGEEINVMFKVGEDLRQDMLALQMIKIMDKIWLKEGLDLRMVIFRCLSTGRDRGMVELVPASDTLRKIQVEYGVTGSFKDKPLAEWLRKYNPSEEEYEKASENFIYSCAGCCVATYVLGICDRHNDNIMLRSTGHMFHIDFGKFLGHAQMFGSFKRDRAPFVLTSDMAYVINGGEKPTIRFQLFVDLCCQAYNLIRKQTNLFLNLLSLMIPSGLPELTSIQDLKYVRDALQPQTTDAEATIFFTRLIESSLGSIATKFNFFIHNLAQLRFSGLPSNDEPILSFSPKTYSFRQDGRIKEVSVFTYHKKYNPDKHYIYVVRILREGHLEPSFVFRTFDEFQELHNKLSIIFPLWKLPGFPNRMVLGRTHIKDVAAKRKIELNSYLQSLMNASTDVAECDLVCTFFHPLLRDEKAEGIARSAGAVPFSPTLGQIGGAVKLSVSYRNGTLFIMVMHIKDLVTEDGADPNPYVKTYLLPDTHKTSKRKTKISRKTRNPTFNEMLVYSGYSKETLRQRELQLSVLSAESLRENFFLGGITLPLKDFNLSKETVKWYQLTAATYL

T1: K130R GFP-ATG5 (mouse) (UniProt Q99J83)
T1 sequence: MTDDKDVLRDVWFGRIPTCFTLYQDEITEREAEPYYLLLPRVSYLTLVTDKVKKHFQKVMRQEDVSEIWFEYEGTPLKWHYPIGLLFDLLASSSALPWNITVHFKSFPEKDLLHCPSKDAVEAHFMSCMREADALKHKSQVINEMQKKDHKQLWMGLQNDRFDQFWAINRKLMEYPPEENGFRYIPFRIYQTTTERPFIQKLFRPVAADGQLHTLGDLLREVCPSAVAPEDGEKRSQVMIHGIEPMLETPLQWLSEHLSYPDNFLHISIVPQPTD

B1: ATG16L2 (protein, UniProt Q6KAU8 1-623)
chain: MAGPGAPCDPCAPAAVWKRHIVRQLRHRDRTQKALFLELVPAYNHLLEKAELLAKFSEKLKSEPKDAISTRHEDWREEVSGTGPDQVSSPASLRVKWQQEKKGLQLVCGEMAYQVVKKSAALDTLQSQLEERQDRLEALQACVVQLQEARAQQSRQLEERQAENAAQREAYETLLQQAVHQEAALRRLQEEARDLLEQLVQRKARAAAERNLRNERRERANQALVSQELKKAAKRTVSISEIPNTLEDGTKEETVALAPAALPEFSESETCEKWKRPFRSASATSLTLSRCVDVVKGLLDFKKRRGHSVGGAPEQRYQSIPVCVSAQIPSQAQDVLDAHLSEVNAVCFGPNSSLLATGGADRLIHLWNVVGGRLEANQTLEGAGGSITSVDFDPSGSQVLAATYNQAAQLWKVGETQSKETLSGHKDKVTAAKFKLTRHQAVTGSRDRTVKEWDLGRAYCSRTINVLSYCNDVVCGDHIIISGHNDQKIRFWDSRGPHCIQVIPVQGRVTSLHLSYDQLHLLSCSRDNTLKVIDLRISNIRQVFRADGFKCSSDWTKAVFSPDRSYALAGSSNGDLYIWDVNTGKLETSLQGPHCTAVNAVAWCFSGNHVVSVDQGRKVVLWH
B2: clathrin light chain (protein, UniProt O08585 1-235)
chain: MAELDPFGAPAGAPGGPALGNGVAGAGEEDPAAAFLAQQESEIAGIENDEAFAILDGGAPGRATRRAAGGPDAVDGVMNGEYYQESNGPTDSYAAISEVDRLQSEPESIRKWREEQTERLEALDANSRKQEAEWKEKAIKELEEWYARQDEQLQKTKANNRVADEAFYKQPFADLIGYVAAEEAFVNDIDESSPGTEWERVARLCDFNPKSSKQAKDVSRMRSVLISLKQAPLVH
B3: huntingtin interacting protein 1 (protein, UniProt Q8VD75 1-1029)
chain: MDRMASSMKQVSNPLPKVLSRRGVGAGMEAAERESFERTQTVSVNKAINTQEVAVKEKHARTCILGTHHEKGAQTFWSVVNRLPLSSNAMLCWKFCHVFHKLLRDGHPNVLKDSLRYKNELSDMSRMWGHLSEGYGQLCSIYLKLLRTRMEYHTKNPRFPGNLQMSDRQLDEAGESDVNNFFQLTVEMFDYLECELNLFQTVFNSLDMSRSVSVTTAGQCRLAPLIQVILDCSHLYDYTVKLLFKLHSCLPADTLQGHRDRFMEQFTKLKDLFQRSSNLQYFKRLIQIPQLPENPPNFLRASALSEHISPVVVIPAEVSSPDSEPVLEKDDLMDMDASQQTLFDNKFDDVFGSSLSSDPFNFNNQNGVNKDEKDHLIERLYREISGLTGQLDNMKIESQRAMLQLKGRVSELEAELAEQQHLGRQAMDDCEFLRTELDELKRQREDTEKAQRSLTEIERKAQANEQRYSKLKEKYSELVQNHADLLRKNAEVTKQVSVARQAQVDLEREKKELADSFARTQEQQDVLENLKHELATSRQELQVLHSNLETSAQSEAKWLTQIAELEKEQGSLATVAAQREEELSALRDQLESTQIKLAGAQESMCQQVKDQRKTLLAGIRKAAEREIQEALSQLEEPTLISCAGSTDHLLSKVSSVSSCLEQLEKNGSQYLACPEDISELLHSITLLAHLTGDTIIQGSATSLRAPPEPADSLTEACRQYGRETLAYLSSLEEEGTMENADVTALRNCLSRVKTLGEELLPRGLDIKQEELGDLVDKEMAATSAAIEAATTRIEEILSKSRAGDTGVKLEVNERILGSCTSLMQAIKVLVVASKDLQKEIVESGRGTASPKEFYAKNSRWTEGLISASKAVGWGATIMVDAADLVVQGKGKFEELMVCSREIAASTAQLVAASKVKANKGSLNLTQLQQASRGVNQATAAVVASTISGKSQIEETDSMDFSSMTLTQIKRQEMDSQVRVLELENDLQKERQKLGELRKKHYELAGVAEGWEEGTEASPSTVQEAIPDKE
B4: cyclin G-associated kinase (protein, UniProt Q99KY4 1-1305)
chain: MSLLQSALDFLAGPGSLGGAAGRDQSDFVGQTVELGELRLRVRRVLAEGGFAFVYEAQDLGSGREYALKRLLSNEEEKNRAIIQEVCFLKKLSGHPNIVQFCSAASIGKEESDTGQAEFLLLTELCKGQLVEFLKRVECKGPLSCDSILKIFYQTCRAVQHMHRQKPPIIHRDLKVENLLLSNQGTIKLCDFGSATTISHYPDYSWSAQKRAMVEEEITRNTTPMYRTPEIVDLYSNFPIGEKQDIWALGCILYLLCFRQHPFEDGAKLRIVNGKYSIPVNDTRYTVFHDLIRAMLKVNPVERLSIAEVVRQLQEIAAARNVNPKAPITELLEQNGGYGNSGPSRAQPPCGGTVNSSGVLALAEYDQPYGGFLDILRGGTERLFTNLKDTSSKVIQSVANYAKGDLDISYITSRIAVMSFPAEGVESAIKNNIEDVRMFLDAKHPGHYAVYNLSPRIYRASKFHNRVTECGWAVRRAPHLHSLYTLCRSMHAWLREDHRNVCVVHCMDGRAASAVAVCAFLCFCRLFSTAEAAVYMFSMKRCPPGIWPSHKRYIEYVCDMVAEEPITPHSKPMLVKSVVMTPVPLFSKQRNGCRPFCEVYVGEERVTTTSQEYDRMKEFKIEDGKAVIPLGVTVQGDVLIIIYHARATLGGRLQAKMASMKMFQIQFHTGFVPRNATTVKFAKYDLDACDIQEKYPDLFQVNLEVEVEPRDRPSREAPPWENTSLRGLNPKILFSNREEQQDILSKFGKPELPRQPGSTAQYDAEAGSPEAEITESDSPQSSSTDTNHFLHTLDWQEEKEPETGLDNTSPKESQSVLIADGDGSEVSDEEEASFPSEERKPGAGEDTPRLAAGTKQQDLIFDVGMLAAPQEPVQPEEGVDLLGLHSEGDLRPAAPLQACGVPSSNTDLLSCLLEPSDAAQVGPPGDLLGGEAPLLLASPVSPLGLQNNLQGKVPDTVDPFDQFLLSSNSDTQPCSKPDLFGEFLNSDSVASSTAFPSTHSAPPPSCSTAFLHLGDLPAEPSKVIASSSHPDLLGGWDTWADTATPGPASIPVPEGTLFSSAGHPAPPGPNPSQTKSQNLDPFADLSDLSSSLQGLPAGLPAGGFVGAPAPTQKSNSPWQANRPTAPGTSWTPQAKPAPRASEQLRSHFSVIGAREERGVRVPSFAQKPKVSENDFEDLLPNQGFSKSDKKGPKTMAEMRKQELARDTDPLKLKLLDWIEGKERNIRALLSTLHTVLWDGESRWTPVSMADLVTPEQVKKQYRRAVLVVHPDKATGQPYEQYAKMIFMELNDAWSEFENQGSRPLF
B5: ATG7 (protein, UniProt Q9D906 1-698)
chain: MGDPGLAKLQFAPFNSALDVGFWHELTQKKLNEYRLDEAPKDIKGYYYNGDSAGLPTRLTLEFSAFDMSASTPAHCCPAMGTLHNTNTLEAFKTADKKLLLEQSANEIWEAIKSGAALENPMLLNKFLLLTFADLKKYHFYYWFCCPALCLPESIPLIRGPVSLDQRLSPKQIQALEHAYDDLCRAEGVTALPYFLFKYDDDTVLVSLLKHYSDFFQGQRTKITVGVYDPCNLAQYPGWPLRNFLVLAAHRWSGSFQSVEVLCFRDRTMQGARDVTHSIIFEVKLPEMAFSPDCPKAVGWEKNQKGGMGPRMVNLSGCMDPKRLAESSVDLNLKLMCWRLVPTLDLDKVVSVKCLLLGAGTLGCNVARTLMGWGVRHVTFVDNAKISYSNPVRQPLYEFEDCLGGGKPKALAAAERLQKIFPGVNARGFNMSIPMPGHPVNFSDVTMEQARRDVEQLEQLIDNHDVIFLLMDTRESRWLPTVIAASKRKLVINAALGFDTFVVMRHGLKKPKQQGAGDLCPSHLVAPADLGSSLFANIPGYKLGCYFCNDVVAPGDSTRDRTLDQQCTVSRPGLAVIAGALAVELMVSVLQHPEGGYAIASSSDDRMNEPPTSLGLVPHQIRGFLSRFDNVLPVSLAFDKCTACSPKVLDQYEREGFTFLAKVFNSSHSFLEDLTGLTLLHQETQAAEIWDMSDEETV
B6: ATG13 (protein, UniProt Q91YI1 1-516)
chain: METELSSQDRKDLDKFIKFFALKTVQVIVQARLGEKICTRSSSSPTGSDWFNLAIKDIPEVTHEAKKALSGQLPAVGRSMCVEISLKTSEGDSMELEIWCLEMNEKCDKEIKVSYTVYNRLSLLLKSLLAITRVTPAYRLSRKQGHEYVILYRIYFGEVQLNGLGEGFQTVRVGTVGTPVGTLTLSCAYRINLAFMSTRQFERTPPIMGIIIDHFVDRPYPSSSPMHPCNYRTAEDAGVAYPSVEDSQEVCTTSFSTSPPSQLSSSRLSYQPAVLGLGSADLAYPVVFTAGLNTTHAHQLMVPGKEGGVTLAPSHPTHGAQADPERLVMHMPSDGTHCAATPSSSEDTETVSNSSEGRASPHDILETIFVRKVGAFVNKPINQVTVTSLDIPFAMFAPKNLELEDADPMVNPPESPETTSPLHGSLHSDGSSGGSGGSTHDDFVMIDFKPAFSKDDILPMDLGTFYREFQNPPQLSSLSIDFGAQSMAEDLDSLPEKLAVHEKNVREFDAFVETLQ
B7: ATG101 (protein, UniProt Q9D8Z6 1-218)
chain: MNCRSEVLEVSVEGRQVEEAMLAVLHTVLLHRSTGKFHYKKEGTYSIGTVGIQDVDCDFIDFTYVRVSSEELDRALRKVVGEFKDALRNSGGDGLGQMSLEFYQKKKSRWPFSDECIPWEVWTVKVHVVALATEQERQICREKVGEKLCEKIINIVEVMSRHEYLPKMPTQSEVDNVFDTGLRDVQPYLYKISFQITEALGTSVTTTMRRLIKDTLAL

Experiments:
Experiment in all cases: affinity purification with mass spectrometry
[1] = biological target: wild-type GFP-ATG5 (mouse) (UniProt Q99J83)
[2] = biological target: T1, K130R GFP-ATG5 (mouse)
[3] = biological target: wild-type GFP-ATG5 (mouse) (UniProt Q99J83); remark: listed apart in the source

Row | Molecule | binding [1] | binding [2] | binding [3]
1 | ATG12 (from UniProt Q9CQY1 1-141) | binds | – | –
2 | phosphatidylinositol 4-phosphate 3-kinase C2 domain-containing subunit alpha (from UniProt Q61194 1-1686) (enzyme) | binds | no binding | binds
3 | B1 | binds | binds | –
4 | B2 | binds | no binding | binds
5 | B3 | – | no binding | binds
6 | B4 | – | no binding | binds
7 | B5 | binds | – | binds
8 | B6 | – | no binding | no binding
9 | B7 | – | no binding | no binding

Where two headings read alike, the source gives them in different places. Results are given in words; binding and its absence hold for the method and conditions named. Binding seen in cells or lysates may run through a third protein. A yes stands for co-enrichment or nearness to the bait. Other partners may have been found. For some of these results: No binding means not detected with the bait. For some of these results: Tags and fused reporters may be left off the sequences shown.
